Read-outs that look alike come from different tables or passages of the source.
How the values were obtained:
[1] = 1990, cited from earlier work
[2] = Tissue distribution-based herb-drug interaction study in rats (CIP i.v., PCE i.g.); format: in vivo; settings: male, Sprague-Dawley, rat, plasma, iv, 0.036 g/kg, plasma ciprofloxacin; for AUC(0-inf) / AUC(0-t): n=3; for k el: n=3, read-out: ke (converted)
in vivo = settings: male, Sprague-Dawley, rat, plasma, po, plasma ciprofloxacin, rats, intragastric CIP […] + PCE 0.72 g/kg
[3] = intravenous CIP 0.036 g/kg + PCE 0.72 g/kg
[4] = intravenous CIP 0.036 g/kg alone

Which intestinal excretion ([1]; ref Rohwedder et al.) does the source give for `O=C(O)c1cn(C2CC2)c2cc(N3CCNCC3)c(F)cc2c1=O` [CIP, ciprofloxacin] here?
Its intestinal excretion is “approximately 18%”.

And the biliary excretion ([1]; ref Vance-Bryan et al.)?
The biliary excretion was “approximately 1%”.

And the AUC(0-inf) [2, 3]?
Its AUC(0-inf) is 5060 ± 995 ng·h/mL.

And the AUC(0-t) [2, 3]?
Its AUC(0-t) is 4720 ± 854 ng·h/mL.

And the k el [2, 3]?
The k el was 0.000144 s⁻¹.

And the AUC(0-inf) [2, 4]?
Its AUC(0-inf) is 5610 ± 662 ng·h/mL.

What about the AUC(0-t) [2, 4] of the same compound?
Its AUC(0-t) is 5350 ± 686 ng·h/mL.

And the k el [2, 4]?
The k el was 0.000175 s⁻¹.

And the AUC(0-t) (in vivo; AUC 0-t)?
Its AUC(0-t) is 3070 ± 633 ng·h/mL.

And the AUC(0-inf) (in vivo; AUC 0-∞)?
Its AUC(0-inf) is 3110 ± 665 ng·h/mL.

And the Cmax (in vivo; C max)?
Its Cmax is 892 ± 108 ng/mL.
